The record followed here is article PMC9701179, “New tricyclic systems as photosensitizers towards triple negative breast cancer cells” (Archives of Pharmacal Research, 2022).

Series [1] is described as follows: Singlet oxygen determination (RNO photobleaching, cell-free). It counts as physicochemical. As to conditions: compound 2.2 × 10^–5 M, phosphate buffer pH 7.3, UVA 0–20 J/cm^2. As to the method: Singlet oxygen determination. Samples containing the compounds under examination (2.2 × 10^–5 M), p-nitrosodimethylaniline (4 × 10^–5 M) and imidazole (4 × 10^–5 M) in 0.02 M phosphate buffer (pH 7.3) were irradiated with increasing UVA doses and their absorbance at 440 nm was then measured (Kraljic and El Mohsni [1978]). The data were expressed as percentage of RNO bleaching.
The percentage of RNO photobleaching of tested compounds under increasing light doses, which is a measure of singlet oxygen generation, is shown in Fig. 2.

The subject of series [2] is MDA-MB-231 cells. Put plainly: Cellular accumulation and biodistribution (confocal microscopy). It counts as cell-based, human. The conditions noted are these: MDA-MB-231, upon irradiation, confocal microscopy × 20. As for the experimental part:
MDA-MB-231 cells were seeded into 4-well tissue-culture slides (BD Falcon, Bedford, MA, USA) at 2.5 × 10^4 cells/well (0.4 cm^2). After 24 h, after 1 h of incubation the medium was replaced with PBS and cells were treated with 2.0 J cm^−2 of UVA light. After irradiation, PBS was replaced with complete proliferation media. Samples were examined at 20 × magnification in a Zeiss LSM 800 confocal microscope using the Zeiss ZEN 2.3 software system.
With the aim of correlating cellular phototoxic activity with intracellular accumulation of tested compounds, we performed some preliminary in cell biodistribution studies.
Fig. 7 Intracellular accumulation studies. MDA-MB-231 TNBC cells were treated with 7h, 8e and 8h upon irradiation and live samples were examined at × 20 magnification by a confocal microscope

Take `CC(C)OC(=O)c1ccc2n1CCc1cc(S(=O)(=O)c3ccccc3)c(=O)[nH]c1-2` [Compound 7c, Propan-2-yl 3-(benzenesulfonyl)-2-oxo-1,2,5,6-tetrahydropyrrolo[1,2-h][1,7]naphthyridine-8-carboxylate]: the “Singlet oxygen generation (percentage of RNO photobleaching at 440 nm)” value in series [1] was “with the exception of 7a and 7c, were able to generate singlet oxygen”. Take `CC(C)OC(=O)C1(Br)C=CC2=C3NC(=O)C(S(=O)(=O)c4ccccc4)C=C3CCCN21` (stereo not drawn) [Compound 8h, Propan-2-yl 3-(benzenesulfonyl)-9-bromo-2-oxo-1,5,6,7-tetrahydro-2H-pyrido[2,3-c]pyrrolo[1,2-a]azepine-9-carboxylate]: in series [1], the “Singlet oxygen generation (percentage of RNO photobleaching at 440 nm)” value is recorded as “higher percentage of RNO photobleaching”. Further, the Intracellular accumulation result in series [2] is on record as “barely effective in accumulating into cancer cells”.

In the case of `CCOC(=O)c1ccc2n1CCCc1cc(S(=O)(=O)c3ccccc3)c(OC)nc1-2` [Compound 8e, Ethyl 3-(benzenesulfonyl)-2-methoxy-6,7-dihydro-5H-pyrido[2,3-c]pyrrolo[1,2-a]azepine-9-carboxylate], the Intracellular accumulation entry in series [2] was “able to significantly enter cancer cell membrane and accumulate in cytoplasm”.

Turning to `CCOC(=O)c1ccc2n1CCc1cc(S(=O)(=O)c3ccccc3)c(OC)nc1-2` [Compound 7h, Ethyl 3-(benzenesulfonyl)-2-methoxy-5,6-dihydropyrrolo[1,2-h][1,7]naphthyridine-8-carboxylate], the Intracellular accumulation result in series [2] was “able to significantly enter cancer cell membrane and accumulate in cytoplasm”. For the compound `O=c1[nH]c2c(cc1S(=O)(=O)c1ccccc1)CCn1cccc1-2` [Compound 7a, 3-(benzenesulfonyl)-5,6-dihydropyrrolo[1,2-h][1,7]naphthyridin-2(1H)-one], the “Singlet oxygen generation (percentage of RNO photobleaching at 440 nm)” value in series [1] was “with the exception of 7a and 7c, were able to generate singlet oxygen”.
